Chains of the proteins cited; added tags and fusions are not shown. Lines headed by an entry give the natural chain unless they say otherwise; changes in a name come on top.
UniProt P51149: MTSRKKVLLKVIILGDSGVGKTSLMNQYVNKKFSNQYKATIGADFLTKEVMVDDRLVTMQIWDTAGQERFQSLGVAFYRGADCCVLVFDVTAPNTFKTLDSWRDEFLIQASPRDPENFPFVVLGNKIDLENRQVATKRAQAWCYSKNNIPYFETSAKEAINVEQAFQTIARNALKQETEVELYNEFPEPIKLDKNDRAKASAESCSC
UniProt Q9BY11: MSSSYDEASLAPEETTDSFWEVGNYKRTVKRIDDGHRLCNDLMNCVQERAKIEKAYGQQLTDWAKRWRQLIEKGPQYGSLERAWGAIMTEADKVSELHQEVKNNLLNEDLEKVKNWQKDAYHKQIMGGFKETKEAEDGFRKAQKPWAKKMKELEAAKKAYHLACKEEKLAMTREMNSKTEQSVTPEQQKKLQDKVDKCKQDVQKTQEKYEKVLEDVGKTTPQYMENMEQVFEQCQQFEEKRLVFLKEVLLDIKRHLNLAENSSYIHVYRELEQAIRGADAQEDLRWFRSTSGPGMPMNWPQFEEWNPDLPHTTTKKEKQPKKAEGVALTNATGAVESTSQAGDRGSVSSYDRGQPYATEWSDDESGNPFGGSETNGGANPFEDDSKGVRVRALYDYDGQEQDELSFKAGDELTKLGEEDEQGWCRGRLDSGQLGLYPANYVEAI

According to article PMC9246181:

Molecular target: Rab7 GTP-restricted mutant (Gal4BD fusion, pFBT9) (UniProt P51149)
Test: two-hybrid; S. cerevisiae PJ69-4A co-transformed with Gal4BD (pFBT9) Rab7 GTP-restricted mutant and Gal4AD (pACT2) PACSIN1; growth on QDO (SC/-Leu/-Trp/-His/-Ade) plates, 3 days at 30°C

binding: no binding
Substance: PACSIN1 (Gal4AD fusion, pACT2) (from UniProt Q9BY11 1-444)

These are yes or no findings as the source states them, for the method shown.
